Earlier results, collected in patent publication US20040254238A1, “Bone growth stimulation with NO/statin and other NO modulating combinations” (OSTEOSCREEN, priority 2003, published 2004).
At least one structure is not confirmed: it was looked up by name or label, or the drawing left a doubt.

System: bone resorption
Conditions: lipid clearing agents; Wang et al. 1995; cited from earlier work

## CC(C)(Oc1ccc(CCNC(=O)c2ccc(Cl)cc2)cc1)C(=O)O [bezafibrate]
  bone resorption induced by steroid administration: inhibit bone resorption induced by steroid administration
